Source: patent US20180087053
The exact form of at least one protein or probe is not confirmed. Where cells or extracts were used, other partners may take part.

Protein sequences, listed by entry. Tags and fused reporters are not part of them. Residues count along the entry.
UniProt P38646, 47-679: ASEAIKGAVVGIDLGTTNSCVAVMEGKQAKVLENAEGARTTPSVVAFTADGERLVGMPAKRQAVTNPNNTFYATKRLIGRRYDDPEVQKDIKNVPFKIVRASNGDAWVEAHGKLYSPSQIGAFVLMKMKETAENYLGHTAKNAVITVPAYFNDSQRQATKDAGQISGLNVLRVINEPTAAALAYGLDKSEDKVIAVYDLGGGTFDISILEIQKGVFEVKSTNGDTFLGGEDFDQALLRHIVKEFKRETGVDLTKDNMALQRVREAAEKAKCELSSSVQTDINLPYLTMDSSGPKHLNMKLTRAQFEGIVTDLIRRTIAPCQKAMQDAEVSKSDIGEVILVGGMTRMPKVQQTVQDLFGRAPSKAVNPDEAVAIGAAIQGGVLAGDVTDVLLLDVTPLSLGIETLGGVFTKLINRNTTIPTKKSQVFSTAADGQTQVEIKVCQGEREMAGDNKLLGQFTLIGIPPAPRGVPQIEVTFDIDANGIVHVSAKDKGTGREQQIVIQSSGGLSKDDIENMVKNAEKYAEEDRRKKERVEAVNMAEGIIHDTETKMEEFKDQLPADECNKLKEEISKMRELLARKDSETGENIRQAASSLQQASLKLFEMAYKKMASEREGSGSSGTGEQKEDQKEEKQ

Biological target: mortalin (mitochondrial Hsp70) from PANC-1 membrane protein extract (Homo sapiens) (UniProt P38646)
Assay: pull-down
Details: 2'-F pyrimidines; 3'-biotin aptamer; band about 75 kDa identified by Q-TOF MS; protein in an extract; protein details: endogenous; label: Cy3 (flow) or 3'-biotin (SPR, pulldown)

| Sequence | binding result |
| --- | --- |
| GGGAGACAAGAAUAAACGCUCAAUGCGCUGAAUGCCCAGCCGUGAAAGCGUCGAUUUCCAUCCUUCGACAGGAGGCUCACAACAGGC [P1] | binds |
| GGGAGACAAGAAUAAACGCUCAAUGGCGAAUGCCCGCCUAAUAGGGCGUUAUGACUUGUUGAGUUCGACAGGAGGCUCACAACAGGC [P19] | binds |
